Experimental findings from patent publication US20190248903A1 (Genentech, published 2019) are described below.

The assay has as its target T1, human CLL-1 on cells (HEK293AD cells stably expressing recombinant huCLL-1; endogenous CLL-1 on HL-60 and EOL-1 AML cells) (human) (UniProt Q5QGZ9).
T1 sequence: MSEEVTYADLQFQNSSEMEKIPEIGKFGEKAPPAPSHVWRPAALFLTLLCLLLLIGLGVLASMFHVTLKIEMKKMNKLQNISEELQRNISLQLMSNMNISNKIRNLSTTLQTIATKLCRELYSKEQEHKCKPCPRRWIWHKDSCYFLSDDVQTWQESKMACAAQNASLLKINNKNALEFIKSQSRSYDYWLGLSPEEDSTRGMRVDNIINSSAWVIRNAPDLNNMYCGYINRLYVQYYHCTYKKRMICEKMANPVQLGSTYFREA
Put plainly: FACS on stable cell lines expressing recombinant huCLL-1 and on AML tumor cell lines.

These are yes or no findings as the source states them, for the method shown. Some entries that bind do so weakly or less than the wild type.

B1: m20B1 (murine anti-CLL-1 monoclonal antibody) (antibody, V domains shown)
VH: EVQLQQSGPELVKPGALVKISCKASGYTFTSYDINWLKQRPGQGLEWIGWIYPGDGTTEYNERFKGKATLTADKSSSTAYLQLSSLTSENSAVYFCARSYDYDYAMDYWGQGTSVTVSS
VL: DIVLTQSPAIMSASPGEKVTMTCSASSSISYMYWYQQKPGTSPKRWIYDTSKLASGVPARFSGSGSGTSYSLTISSMEAEDAATYYCHQRSSWTFGGGTKLEIK
For B1, the binding entry is recorded as “binds”.

B2: m21C9 (murine anti-CLL-1 monoclonal antibody) (antibody, V domains shown)
VH: EVQLQQSGPELVKPGASVKMSCKASGYTFTDYYLDWVKQSHGESFEWIGRVNPYNGGTIYNQKFKGKATLTVDKSSSTAYMDLNSLTSEDSAVYYCARDHYRYDPLLDYWGQGTTLTVSS
VL: DIQMTQSHKFMSTSVGDRVSITCKASQDVSTAVAWFQQKPGQSPKLLIYSPSYRYTGVPDRFTGSGSGTDFTFTISSVQAEDLAVYYCQQLYSTPYTFGGGTKLEIK
For B2, the binding result is “binds”.

B3: m28H12 (murine anti-CLL-1 monoclonal antibody) (antibody, V domains shown)
VH: QVQLQQSGAELVKPGASVKLSCTASGFNIKDTYMHWVKQRPEQGLEWIGRIDPANGDTDYDPKFQGKATVTADTSSNTAYLQLSSLTSEDTAVYYCTISGPPYYVMDYWGQGTSVTVSS
VL: DIQMTQSPASLAVSLGQRATISCRASQSVSSSSYSYMHWYQQKPGQPPKLLIKYASNLESGVPARFSGRGSGTDFTLNIHPVEEEDTATYYCQHSWEIPYTFGGGTRLEIK
As to B3, the binding entry is recorded as “binds”.

B4: m6E7 (murine anti-CLL-1 monoclonal antibody) (antibody, V domains shown)
VH: QVQLQQSGPELVKPGASVKISCKASGYSFTDYYMHWVKQSHIKSLEWIGRINPYNGAAFYSQNFKDKASLTVDKSSSTAYMELHSLTSEDSAVYYCAIERGADLEGYAMDYWGQGTSVTVSS
VL: DIVLTQSPSSLIVSLGQRATISCRASQSVSTSSYNYMHWYQQKPGQPPKLLLKYASNLESGVPARFSGSGSGTDFTLNIHPVEEEDTATYYCQHSWEIPLTFGAGTKLEIK
As to B4, the binding result is listed as “binds”.
